Test results: PubChem BioAssay AID2685 (National Center for Advancing Translational Sciences (NCATS), 2010)
The list shows a part of the results. Further columns of the screen follow, without active or inactive calls. Compounds called inactive in the main read-out are mostly missing here. The note in brackets gives the kind of curve behind each potency; many fits are weak.

Experiment: qHTS Assay for Lipid Storage Modulators in Drosophila S3 Cells;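 on cell number change: cells counted by Cell Tracker Red CMTPX staining in the red channel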
Conditions: BODIPY lipid droplet fluorescence, 18-24 h; for cell number change: measured here: cell count max response, cells fed with added oleic acid
Excerpt: NIH Molecular Libraries Probe Production Centers Network [MLPCN] NIH Chemical Genomics Center [NCGC] MLPCN Grant: 1 R03 MH085686-01 Assay Submitter (PI): Beller, Mathias; Max-Planck-Institut fur Biophysikalische Chemie NCGC Assay Overview: Storing lipids as a reservoir for energy or the anabolism of elementary metabolites is a common feature of probably all cells and is conserved from bacteria to humans. The universal cellular lipid storage organelle is the so-called lipid storage droplet (LD). Although ubiquitous, LDs share a simple structure composed of a hydrophobic core that harbors the storage lipids, which is shielded by a droplet-specific phospholipid monolayer to which proteins are attached. The current model of LD biogenesis involves an incorporation of the lipid core into the membrane leaflets of the endoplasmic reticulum (ER) followed by a subsequent budding-like maturation of a LD, which ultimately pinches off. Once released, LD volume can increase by localized lipogenesis or fusion of existing droplet. Storage lipids are re-mobilized enzymatically by lipase activity. Lipase regulation in the adipocyte is heavily studied and involves multiple components including catecholamine signaling, the LD-associated proteins Perilipin and comparative gene identification (CGI-58) and at least two lipases named hormone sensitive lipase (HSL) and adipocyte triglyceride lipase (ATGL). LD regulation outside of the adipocyte is poorly understood and only few components are known. However, there is an urgent need to learn more about ectopic fat depots as mislocalized storage of lipids, for example in the liver or muscle, is an eminent health problem associated with insulin resistance or the metabolic syndrome. We developed a laser-scanning cytometer assay to enable 1,536-well screening and combined the results of the small molecules screen with an RNAi database based on lipid storage.
Triacsin C (Sigma-Aldrich T-4540), an inhibitor of long-chain fatty acyl CoA synthetase that blocks synthesis of triglycerides, was used as a positive control for lipid under-storage. A total of 23 nL of compound solution of different concentrations were transferred to the assay plates using a Kalypsys pin tool equipped with a 1,536-pin array containing 10-nL slotted pins (FP1S10, 0.457-mm diameter, 50.8 mm long; V&P Scientific). One microliter of oleic acid (400 uM) was added, and the plate was lidded with stainless steel rubber gasket lined lids containing pinholes. […] Fluorescence was detected by excitation of the fluorophores with a 488-nm laser on an Acumen Explorer (TTP Lab Tech). The total intensity in channel 2 (500-530 nm) reflected lipid droplet accumulation. Cells were detected using channel 3 (575-640 nm) with 5-um width and 100-um depth filters. The ratio of the number of objects in PMT channel 2 over the number of objects in PMT channel 3 was also calculated. Percent activity was computed relative to an internal control (100% inhibited lipid droplet deposition due to the presence of 20 uM Triacsin C), which was added to 32 wells/plate.

[1] = measured here: cell number channel AC50, cells fed with added oleic acid
[2] = measured here: lipid fluorescence (Fed channel) AC50, cells fed with added oleic acid

Cc1nc(NC(=O)c2ccc(Cl)cc2)sc1-c1csc(Nc2cccc(F)c2)n1
cell number change: -36.8% | AC50 [1]: 16400 nM [falling, single point] | AC50 [2]: 11600 nM [falling, partial curve]

C/C(CCC12CC3CC(CC(C3)C1)C2)=N\NC(N)=S
cell number change: 0.806% | AC50 [1]: 6510 nM [rising, single point] | AC50 [2]: 16400 nM [rising, partial curve]

COc1ccc(S(=O)(=O)N(CC(=O)NCC2CCCO2)c2ccc(Cl)cc2)cc1 (centres undefined)
cell number change: 3.04% | AC50 [2]: 580 nM [rising, single point]

COc1ccc(CNC(=O)C/C(C)=N/NC(=O)COc2ccc(Br)cc2)cc1
cell number change: 36.7% | AC50 [1]: 20.6 nM [rising, full curve, poor fit]

COc1ccc(S(=O)(=O)N(C)C)cc1NC(=O)CN1C(=O)NC2(CCCC2)C1=O
cell number change: 5.26%

CCc1ccccc1NC(=S)N1CCN(c2ccccc2F)CC1
cell number change: -4.85% | AC50 [2]: 2590 nM [rising, partial curve]

CCN(CCNC(=O)C1CCCN(c2ncnc3c2nc2n3CCCCC2)C1)Cc1ccccc1 (centres undefined)
cell number change: -4.01% | AC50 [2]: 580 nM [rising, single point]

CCOC(=O)CSc1nc(N2CCOCC2)c2c(c1C#N)CC(C)(C)N(C)C2
cell number change: -21.8% | AC50 [2]: 651 nM [falling, single point]

Cc1cc(C)n2nc(C(=O)N/N=C/c3ccco3)nc2n1
cell number change: -28.2% | AC50 [2]: 82 nM [falling, full curve, poor fit]

CC1C/C(=N\NC(=O)c2ccc([N+](=O)[O-])cc2)CC(C)(C)C1 (centres undefined)
cell number change: -20.5%

Cc1cccc(NC(=O)c2sc3ncn(CC(=O)N4CCN(c5ccccn5)CC4)c(=O)c3c2C)c1
cell number change: -24.4%

O=C(CN1CCN(CC(=O)Nc2ccccc2Cl)CC1)NCC1(N2CCCCC2)CCCCC1
cell number change: 21.5% | AC50 [2]: 32600 nM [rising, single point]

C/C(=N\Nc1ncc(Cl)cc1Cl)c1ccccn1
cell number change: -66.9% | AC50 [1]: 29100 nM [falling, single point] | AC50 [2]: 29100 nM [falling, single point]

Cc1c(OCC(=O)NCCCN2CCOCC2)ccc2c1oc(=O)c1ccccc12
cell number change: 5.38%

COc1cc(C2c3c(c(C)c(C)oc3=O)Oc3c(C)c(C)oc(=O)c32)ccc1OS(=O)(=O)c1ccc(C)cc1
cell number change: -9.27%

COc1ccccc1NC1=C(NC(C)=O)C(=O)c2ccccc2C1=O
AC50 [1]: 1300 nM [rising, full curve] | AC50 [2]: 2060 nM [rising, partial curve]

Cc1cccc(N2N=C(C(=O)N3CC(=O)Nc4ccccc43)CCC2=O)c1
cell number change: 30.6% | AC50 [1]: 29100 nM [rising, single point] | AC50 [2]: 29100 nM [rising, single point]

O=C(NCCOc1ccccc1F)C1CC(=O)N(c2ccc3c(c2)OCCO3)C1 (centres undefined)
cell number change: 1.17% | AC50 [2]: 13000 nM [rising, partial curve]

NC(=O)c1cc2nc(-c3ccco3)cc(C(F)(F)F)n2n1
cell number change: -9.57% | AC50 [2]: 2060 nM [rising, partial curve, poor fit]

O=C(CCc1ccccc1)Nc1ccccc1C(=O)N1CCOCC1
cell number change: -12.1% | AC50 [2]: 164 nM [falling, full curve, poor fit]

COc1ccc(-c2csc3nc(-c4cccnc4)nc(Cl)c23)cc1OC
cell number change: -17%

Cc1c(Cl)cccc1NC(=O)N1CCCC1
cell number change: -8.68% | AC50 [2]: 4.61 nM [falling, full curve, poor fit]

CC1CCc2c(nc3ncnn3c2NCCN(C)C)C1 (centres undefined)
AC50 [1]: 6510 nM [rising, single point]

Cc1ccc(/C=N/NC(=O)c2ccc3ccccc3c2)s1
cell number change: -40.1% | AC50 [1]: 32600 nM [falling, single point] | AC50 [2]: 29100 nM [rising, single point]

O=C(NCc1ccccn1)c1ccc(=O)oc1
cell number change: 7.25% | AC50 [2]: 11600 nM [falling, partial curve, poor fit]

O=[N+]([O-])c1ccc(-c2cc(-c3ccncc3)nc3ccc4ccccc4c23)cc1
cell number change: 4.73% | AC50 [2]: 29100 nM [rising, single point]

CC(C)C(Nc1ccc(S(=O)(=O)N2CCOCC2)cc1[N+](=O)[O-])C(=O)O (centres undefined)
cell number change: -34.7% | AC50 [1]: 116 nM [falling, full curve, poor fit]

COc1ccc(C(CNC(=O)C2CCN(S(=O)(=O)c3ccc(F)cc3)CC2)N(C)C)cc1 (centres undefined)
AC50 [1]: 5170 nM [rising, single point]

Cc1ccc(CNC(=O)COC(=O)c2ccc(S(=O)(=O)N3CCCC3)cc2)cc1
cell number change: -3.77% | AC50 [2]: 73.1 nM [falling, full curve, poor fit]

COc1cc(NC(=O)CN(C)S(=O)(=O)c2ccc3c(c2)CC(C)N3C(C)=O)cc(OC)c1OC (centres undefined)
cell number change: -3.28% | AC50 [2]: 291 nM [rising, full curve]

COc1cccc(OC)c1C(=O)Nn1c(-c2cccs2)nc2ccccc2c1=O
cell number change: 0.563% | AC50 [2]: 7.31 nM [falling, full curve, poor fit]

Cc1ccc(CNC(=O)N2CCN(C)CC2)cc1
cell number change: 5.82% | AC50 [2]: 820 nM [falling, single point]

CCC(C)c1ccc(O)c(NC(=O)c2cncc(Br)c2)c1 (centres undefined)
cell number change: -31.7% | AC50 [1]: 82 nM [falling, full curve, poor fit]

CSc1ccc(C#N)cc1NC(=O)c1ccc(Cl)cc1
AC50 [1]: 1460 nM [rising, partial curve] | AC50 [2]: 1300 nM [rising, partial curve]

C=CCn1c(=O)c2c3c(sc2n2c(Nc4ccccc4)nnc12)CCCC3
cell number change: -5.89% | AC50 [1]: 51.7 nM [rising, full curve] | AC50 [2]: 58 nM [rising, full curve, poor fit]

COc1ccc(S(=O)(=O)N2CCOCC2)cc1NC(=O)CSc1nnc(C2CC2)n1N
cell number change: 38.3% | AC50 [1]: 13000 nM [rising, single point]

CCOC(=O)C(Cc1ccccc1)(NC(C)=O)C(=O)OCC
cell number change: -21.9%

Cc1c(C)n(C)c2ccc(C(=O)NCCN3CCOCC3)cc12
cell number change: -1.22% | AC50 [2]: 29100 nM [rising, single point]

O=C(c1ccccc1)C1CN(c2ccccc2)CC1c1ccc(Cl)cc1 (centres undefined)
cell number change: 24.8% | AC50 [2]: 580 nM [falling, single point]

COc1ccccc1OC(C)C(=O)Nc1ccc2c(c1)OCCO2 (centres undefined)
cell number change: 3.15%

O=C(NNc1ccccc1[N+](=O)[O-])Nc1ccc(F)cc1F
cell number change: 6.58%

CN1CCN(S(=O)(=O)c2ccc(Oc3ccc(Br)cc3F)nc2)CC1
cell number change: 37.3% | AC50 [1]: 1300 nM [rising, full curve] | AC50 [2]: 1640 nM [rising, full curve]

CC1CCCN(C(=O)Cn2nnc(-c3ccc(N(C)C)cc3)n2)C1 (centres undefined)
cell number change: 11.9% | AC50 [2]: 29100 nM [falling, single point]

Cc1cc(C)nc(/N=C(\N)Nc2ccccc2-c2ccccc2)n1
cell number change: -57.8% | AC50 [1]: 20600 nM [falling, single point] | AC50 [2]: 29100 nM [falling, single point]

CCN1CCN(c2ccc(S(=O)(=O)N3CCCCC3)cc2N)CC1
cell number change: -17.5% | AC50 [2]: 580 nM [rising, partial curve]

CC(=O)N/C(=C/c1ccc(OC(F)F)cc1)C(=O)O
cell number change: -24.2% | AC50 [2]: 116 nM [falling, full curve, poor fit]

O=C1c2ccccc2C(=O)N1Nc1ccccc1
cell number change: -3.74%

COc1ccc(-c2ccc(-c3nnc(-c4cc(OC)ccc4OC)o3)cc2)cc1
cell number change: 3.59% | AC50 [2]: 820 nM [rising, single point]

CCOc1ccc2nc(NC(=O)CSC3=NCCS3)sc2c1
cell number change: -19.9% | AC50 [2]: 29100 nM [falling, single point]

COC(=O)Cn1cnc2sc3c(c2c1=O)CCCC3
cell number change: -27.8%

CC(C)c1ccc(/C=N/NC(=O)c2nnn(-c3nonc3N)c2CN2CCOCC2)cc1
cell number change: 1.61%

COc1ccc(NC(=O)COC(=O)C2CC3C=CC2C3)cc1 (centres undefined)
cell number change: 8.78%

Cc1ccc(C(=O)Nc2ccccc2N2CCCCC2)o1
cell number change: -9.68%

CC(C)(C)n1nnnc1C(c1ccncc1)N1CCN(c2ccc(O)cc2)CC1 (centres undefined)
cell number change: 20% | AC50 [2]: 16400 nM [rising, single point]

COC(=O)c1sc(NC(=O)COc2ccccc2)nc1C
cell number change: 150% | AC50 [1]: 29100 nM [rising, single point]

Cc1csc(C(=O)O)c1NC(=O)c1ccc(F)cc1
cell number change: 22.5% | AC50 [2]: 6510 nM [rising, single point]

Cc1ccc(NC(=O)c2ccco2)c(NC(=O)Cc2cccs2)c1
cell number change: 27.7% | AC50 [1]: 231 nM [rising, full curve, poor fit]

N#C/C(=C\c1cccc(OCC(=O)O)c1)c1nc2ccccc2[nH]1
cell number change: -11% | AC50 [2]: 130 nM [rising, full curve, poor fit]

CC1CC(C)CN(S(=O)(=O)c2ccc(NC(=O)CN3CCCCCC3)cc2)C1 (centres undefined)
cell number change: 15.3%

O=C(O)CC(C(=O)Nc1ccc(Cl)cc1)N1CCCCCC1 (centres undefined)
cell number change: 1.55%

Clc1ccc(-c2n[nH]c3c2CCCC3)cc1
cell number change: -28.8% | AC50 [2]: 23100 nM [falling, single point]

O=C1c2ccccc2C(Nc2ccc3c(c2)OCCO3)N1c1ccc(Cl)cn1 (centres undefined)
cell number change: 43.9% | AC50 [1]: 11600 nM [rising, partial curve, poor fit] | AC50 [2]: 10300 nM [rising, partial curve]

O=C(O)C1Cc2c([nH]c3ccccc23)C(c2ccc3c(c2)OCO3)N1 (centres undefined)
cell number change: -12.2% | AC50 [2]: 731 nM [rising, single point]

COc1ccc(C(=O)Nc2ccc3nc(N4CCCCC4)cc(C)c3c2)c(OC)c1
cell number change: 12.1% | AC50 [2]: 206 nM [rising, full curve, poor fit]
